Laboratory results published in doi:10.1101/059964.
These are yes or no findings as the source states them, for the method shown. In cells and extracts the contact can be indirect. Here binding means that the protein was enriched with, or labelled near, the bait; the list need not be complete. For some assays here: A no says only that the protein was not detected with the bait.

By UniProt entry, the sequences of proteins in these tests, tags left out.
UniProt Q13185: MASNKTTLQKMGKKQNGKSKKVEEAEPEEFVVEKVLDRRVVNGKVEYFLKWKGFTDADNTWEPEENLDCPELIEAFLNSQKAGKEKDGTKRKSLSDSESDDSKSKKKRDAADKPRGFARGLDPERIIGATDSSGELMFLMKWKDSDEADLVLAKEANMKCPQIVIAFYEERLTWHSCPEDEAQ
UniProt P83916: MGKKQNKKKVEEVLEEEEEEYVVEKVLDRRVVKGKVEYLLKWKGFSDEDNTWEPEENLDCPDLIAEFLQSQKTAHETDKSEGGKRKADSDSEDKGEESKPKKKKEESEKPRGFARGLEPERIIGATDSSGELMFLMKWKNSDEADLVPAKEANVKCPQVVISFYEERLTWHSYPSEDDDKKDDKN
UniProt Q96KQ7: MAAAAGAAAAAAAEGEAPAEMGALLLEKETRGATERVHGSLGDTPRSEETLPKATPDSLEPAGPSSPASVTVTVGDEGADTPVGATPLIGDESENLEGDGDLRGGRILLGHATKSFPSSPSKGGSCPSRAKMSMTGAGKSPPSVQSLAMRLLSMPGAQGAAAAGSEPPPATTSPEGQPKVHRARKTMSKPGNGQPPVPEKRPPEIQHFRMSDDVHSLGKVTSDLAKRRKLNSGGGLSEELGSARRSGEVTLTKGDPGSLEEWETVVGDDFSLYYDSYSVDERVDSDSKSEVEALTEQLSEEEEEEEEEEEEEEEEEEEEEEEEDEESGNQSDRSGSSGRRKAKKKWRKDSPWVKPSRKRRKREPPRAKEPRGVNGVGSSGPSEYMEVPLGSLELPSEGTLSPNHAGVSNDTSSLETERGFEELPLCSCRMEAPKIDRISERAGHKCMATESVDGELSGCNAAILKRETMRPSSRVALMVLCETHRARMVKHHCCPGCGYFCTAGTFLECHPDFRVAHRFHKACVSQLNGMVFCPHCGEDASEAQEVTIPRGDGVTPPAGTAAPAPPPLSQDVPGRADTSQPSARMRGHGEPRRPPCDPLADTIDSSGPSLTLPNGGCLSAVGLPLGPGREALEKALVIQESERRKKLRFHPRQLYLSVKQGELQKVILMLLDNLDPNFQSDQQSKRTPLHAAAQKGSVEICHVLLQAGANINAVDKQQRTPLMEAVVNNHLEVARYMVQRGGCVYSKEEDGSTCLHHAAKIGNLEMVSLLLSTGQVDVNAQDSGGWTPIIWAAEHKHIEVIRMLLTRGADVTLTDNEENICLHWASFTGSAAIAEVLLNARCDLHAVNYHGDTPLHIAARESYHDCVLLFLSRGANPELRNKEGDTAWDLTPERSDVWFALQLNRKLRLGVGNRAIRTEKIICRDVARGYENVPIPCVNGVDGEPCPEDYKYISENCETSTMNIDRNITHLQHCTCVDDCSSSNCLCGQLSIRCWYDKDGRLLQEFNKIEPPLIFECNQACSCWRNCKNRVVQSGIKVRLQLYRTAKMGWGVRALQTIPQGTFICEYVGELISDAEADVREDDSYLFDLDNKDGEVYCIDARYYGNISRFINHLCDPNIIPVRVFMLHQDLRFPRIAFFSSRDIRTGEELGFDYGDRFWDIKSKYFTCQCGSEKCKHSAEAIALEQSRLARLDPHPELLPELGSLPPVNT
UniProt P45973: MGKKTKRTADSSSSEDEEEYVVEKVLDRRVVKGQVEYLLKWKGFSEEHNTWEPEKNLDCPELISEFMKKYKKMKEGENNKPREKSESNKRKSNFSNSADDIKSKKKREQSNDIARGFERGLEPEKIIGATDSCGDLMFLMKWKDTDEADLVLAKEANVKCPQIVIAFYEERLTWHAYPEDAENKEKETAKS
UniProt Q92800: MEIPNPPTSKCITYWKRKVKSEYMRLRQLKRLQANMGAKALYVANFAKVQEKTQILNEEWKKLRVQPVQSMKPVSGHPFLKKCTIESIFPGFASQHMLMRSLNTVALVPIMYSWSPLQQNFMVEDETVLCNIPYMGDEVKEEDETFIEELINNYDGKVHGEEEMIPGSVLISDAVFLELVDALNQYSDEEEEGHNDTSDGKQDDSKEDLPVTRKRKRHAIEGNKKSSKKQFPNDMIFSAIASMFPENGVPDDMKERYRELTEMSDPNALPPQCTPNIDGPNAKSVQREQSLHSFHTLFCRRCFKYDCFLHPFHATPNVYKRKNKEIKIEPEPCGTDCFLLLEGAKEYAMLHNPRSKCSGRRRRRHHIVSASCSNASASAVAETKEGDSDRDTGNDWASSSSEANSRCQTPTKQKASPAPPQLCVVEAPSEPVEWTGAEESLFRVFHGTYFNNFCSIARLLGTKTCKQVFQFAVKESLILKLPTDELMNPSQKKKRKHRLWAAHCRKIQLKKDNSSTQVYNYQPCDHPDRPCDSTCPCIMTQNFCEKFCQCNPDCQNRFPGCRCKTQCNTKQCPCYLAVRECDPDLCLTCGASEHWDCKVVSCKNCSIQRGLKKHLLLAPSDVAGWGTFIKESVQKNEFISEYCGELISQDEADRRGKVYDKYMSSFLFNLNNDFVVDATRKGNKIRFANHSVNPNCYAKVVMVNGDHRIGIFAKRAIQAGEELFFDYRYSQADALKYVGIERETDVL
UniProt Q15022: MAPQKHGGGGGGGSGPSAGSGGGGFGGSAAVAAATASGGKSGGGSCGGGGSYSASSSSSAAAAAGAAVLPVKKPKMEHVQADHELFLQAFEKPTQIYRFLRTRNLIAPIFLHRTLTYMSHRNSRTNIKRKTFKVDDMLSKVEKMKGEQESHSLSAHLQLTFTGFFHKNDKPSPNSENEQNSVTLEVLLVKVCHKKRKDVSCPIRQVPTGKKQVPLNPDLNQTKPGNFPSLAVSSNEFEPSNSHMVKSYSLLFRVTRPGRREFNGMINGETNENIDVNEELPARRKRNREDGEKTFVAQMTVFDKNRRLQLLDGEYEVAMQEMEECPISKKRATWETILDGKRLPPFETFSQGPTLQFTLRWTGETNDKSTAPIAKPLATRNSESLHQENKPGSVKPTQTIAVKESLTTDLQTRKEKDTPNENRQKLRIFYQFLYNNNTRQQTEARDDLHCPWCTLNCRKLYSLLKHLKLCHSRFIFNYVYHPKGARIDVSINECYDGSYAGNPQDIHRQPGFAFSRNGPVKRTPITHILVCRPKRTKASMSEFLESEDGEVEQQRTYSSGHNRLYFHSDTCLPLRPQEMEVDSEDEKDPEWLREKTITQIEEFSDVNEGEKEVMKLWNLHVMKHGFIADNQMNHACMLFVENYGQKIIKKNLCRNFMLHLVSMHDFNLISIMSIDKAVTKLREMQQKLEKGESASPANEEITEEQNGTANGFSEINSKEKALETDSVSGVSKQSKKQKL

How the values were obtained:
Experiment in all cases: affinity purification with mass spectrometry
[1] = target: CBX3 (human) (UniProt Q13185)
[2] = target: CBX1 (human) (UniProt P83916)
[3] = target: EHMT2 (human) (UniProt Q96KQ7)
[4] = target: CBX5 (human) (UniProt P45973)
[5] = target: EZH1 (human) (UniProt Q92800)
[6] = target: SUZ12 (human) (UniProt Q15022)
[7] = target: CBX5 (human), P45973; conditions: remark: other sources report otherwise

B1: ZN644 (protein, UniProt Q9H582 1-1327)
chain: MRSFLQQDVNKTKSRLNVLNGLANNMDDLKINTDITGAKEELLDDNNFISDKESGVHKPKDCQTSFQKNNTLTLPEELSKDKSENALSGGQSSLFIHAGAPTVSSENFILPKGAAVNGPVSHSSLTKTSNMNKGSVSLTTGQPVDQPTTESCSTLKVAADLQLSTPQKASQHQVLFLLSDVAHAKNPTHSNKKLPTSASVGCDIQNSVGSNIKSDGTLINQVEVGEDGEDLLVKDDCVNTVTGISSGTDGFRSENDTNWDPQKEFIQFLMTNEETVDKAPPHSKIGLEKKRKRKMDVSKITRYTEDCFSDSNCVPNKSKMQEVDFLEQNEELQAVDSQKYALSKVKPESTDEDLESVDAFQHLIYNPDKCGEESSPVHTSTFLSNTLKKKCEESDSESPATFSTEEPSFYPCTKCNVNFREKKHLHRHMMYHLDGNSHFRHLNVPRPYACRECGRTFRDRNSLLKHMIIHQERRQKLMEEIRELKELQDEGRSARLQCPQCVFGTNCPKTFVQHAKTHEKDKRYYCCEECNFMAVTENELECHRGIAHGAVVKCPMVTSDIAQRKTQKKTFMKDSVVGSSKKSATYICKMCPFTTSAKSVLKKHTEYLHSSSCVDSFGSPLGLDKRKNDILEEPVDSDSTKTLTKQQSTTFPKNSALKQDVKRTFGSTSQSSSFSKIHKRPHRIQKARKSIAQSGVNMCNQNSSPHKNVTIKSSVDQKPKYFHQAAKEKSNAKANSHYLYRHKYENYRMIKKSGESYPVHFKKEEASSLNSLHLFSSSSNSHNNFISDPHKPDAKRPESFKDHRRVAVKRVIKESKKESSVGGEDLDSYPDFLHKMTVVVLQKLNSAEKKDSYETEDESSWDNVELGDYTTQAIEDETYSDINQEHVNLFPLFKSKVEGQEPGENATLSYDQNDGFYFEYYEDTGSNNFLHEIHDPQHLETADASLSKHSSVFHWTDLSLEKKSCPYCPATFETGVGLSNHVRGHLHRAGLSYEARHVVSPEQIATSDKMQHFKRTGTGTPVKRVRKAIEKSETTSEHTCQLCGGWFDTKIGLSNHVRGHLKRLGKTKWDAHKSPICVLNEMMQNEEKYEKILKALNSRRIIPRPFVAQKLASSDDFISQNVIPLEAYRNGLKTEALSVSASEEEGLNFLNEYDETKPELPSGKKNQSLTLIELLKNKRMGEERNSAISPQKIHNQTARKRFVQKCVLPLNEDSPLMYQPQKMDLTMHSALDCKQKKSRSRSGSKKKMLTLPHGADEVYILRCRFCGLVFRGPLSVQEDWIKHLQRHIVNANLPRTGAGMVEVTSLLKKPASITETSFSLLMAEAAS
B1 was tested, and the binding [1] was “binds”, the binding [2] was “binds” and the binding [3] was “binds”.

B2: SENP7 (protein, UniProt Q9BQF6 1-1050)
chain: MDKRKLGRRPSSSEIITEGKRKKSSSDLSEIRKMLNAKPEDVHVQSPLSKFRSSERWTLPLQWERSLRNKVISLDHKNKKHIRGCPVTSKSSPERQLKVMLTNVLWTDLGRKFRKTLPRNDANLCDANKVQSDSLPSTSVDSLETCQKLEPLRQSLNLSERIPRVILTNVLGTELGRKYIRTPPVTEGSLSDTDNLQSEQLSSSSDGSLESYQNLNPHKSCYLSERGSQRSKTVDDNSAKQTAHNKEKRRKDDGISLLISDTQPEDLNSGSRGCDHLEQESRNKDVKYSDSKVELTLISRKTKRRLRNNLPDSQYCTSLDKSTEQTKKQEDDSTISTEFEKPSENYHQDPKLPEEITTKPTKSDFTKLSSLNSQELTLSNATKSASAGSTTETVENSNSIDIVGISSLVEKDENELNTIEKPILRGHNEGNQSLISAEPIVVSSDEEGPVEHKSSEILKLQSKQDRETTNENESTSESALLELPLITCESVQMSSELCPYNPVMENISSIMPSNEMDLQLDFIFTSVYIGKIKGASKGCVTITKKYIKIPFQVSLNEISLLVDTTHLKRFGLWKSKDDNHSKRSHAILFFWVSSDYLQEIQTQLEHSVLSQQSKSSEFIFLELHNPVSQREELKLKDIMTEISIISGELELSYPLSWVQAFPLFQNLSSKESSFIHYYCVSTCSFPAGVAVAEEMKLKSVSQPSNTDAAKPTYTFLQKQSSGCYSLSITSNPDEEWREVRHTGLVQKLIVYPPPPTKGGLGVTNEDLECLEEGEFLNDVIIDFYLKYLILEKASDELVERSHIFSSFFYKCLTRKENNLTEDNPNLSMAQRRHKRVRTWTRHINIFNKDYIFVPVNESSHWYLAVICFPWLEEAVYEDFPQTVSQQSQAQQSQNDNKTIDNDLRTTSTLSLSAEDSQSTESNMSVPKKMCKRPCILILDSLKAASVQNTVQNLREYLEVEWEVKLKTHRQFSKTNMVDLCPKVPKQDNSSDCGVYLLQYVESFFKDPIVNFELPIHLEKWFPRHVIKTKREDIRELILKLHLQQQKGSSS
For B2, the binding [4] was “binds” and the binding [1] was “binds”.

B3: SKI/DAC domain containing protein 1 (SKDA1) (protein, UniProt Q1XH10 1-908)
chain: MGDLKSGFEEVDGVRLGYLIIKGKQMFALSQVFTDLLKNIPRTTVHKRMDHLKVKKHHCDLEELRKLKAINSIAFHAAKCTLISREDVEALYTSCKTERVLKTKRRRVGRALATKAPPPERAAAASPRPGFWKDKHQLWRGLSGAARPLPISAQSQRPGAAAARPAAHLPQIFSKYPGSHYPEIVRSPCKPPLNYETAPLQGNYVAFPSDPAYFRSLLCSKHPAAAAAAAAAAAAAAAAAAAAAYYQVSAAGPQPKAAAGAGGPGSLSYRCKRKRGGAKDCLLAPHAGARRLLLLPRSYKAKAAAAAAAAAAAAAAAAGATCLERFHLVNGFCPPPHHHHHHHHHHHHHHHRAQPPQQSHHPPHHHRPQPHLGSFPESCSSDSESSSYSDHAANDSDFGSSLSSSSNSVSSEEEEEEGEEEEEEEEEEGGSGASDSSEVSSEEEDSSTESDSSSGSSQVSVQSIRFRRTSFCKPPSVQAQANFLYHLASAAAATKPAAFEDAGRLPDLKSSVKAESPAEWNLQSWAPKASPVYCPASLGSCFAEIRNDRVSEITFPHSEISNAVKRTDLTINCLAEGASSPSPKTNNAFPQQRILREARKCLQTTPTTHCADNNTIAARFLNNDSSGAEANSEKYSKILHCPEFATDLPSSQTDPEVNAAGAAATKAENPCTDTGDKTLPFLHNIKIKVEDSSANEEYEPHLFTNKLKCECNDTKGEFYSVTESKEEDALLTTAKEGFACPEKETPSLNPLAQSQGLSCTLGSPKPEDGEYKFGARVRKNYRTLVLGKRPVLQTPPVKPNLKSARSPRPTGKTETNEGTLDDFTVINRRKKVASNVASAVKRPFHFMANFPCPPSLIIGRDGDLWPAYSLNTTKDSQTPHKAHPIWKWQLGGSAIPLPPSHKFRKFNS
With B3 the binding [5] was “binds” and the binding [6] was “binds”.

B4: EHMT1, Q9H9B1 1-1298 (protein)
chain: MAAADAEAVPARGEPQQDCCVKTELLGEETPMAADEGSAEKQAGEAHMAADGETNGSCENSDASSHANAAKHTQDSARVNPQDGTNTLTRIAENGVSERDSEAAKQNHVTADDFVQTSVIGSNGYILNKPALQAQPLRTTSTLASSLPGHAAKTLPGGAGKGRTPSAFPQTPAAPPATLGEGSADTEDRKLPAPGADVKVHRARKTMPKSVVGLHAASKDPREVREARDHKEPKEEINKNISDFGRQQLLPPFPSLHQSLPQNQCYMATTKSQTACLPFVLAAAVSRKKKRRMGTYSLVPKKKTKVLKQRTVIEMFKSITHSTVGSKGEKDLGASSLHVNGESLEMDSDEDDSEELEEDDGHGAEQAAAFPTEDSRTSKESMSEADRAQKMDGESEEEQESVDTGEEEEGGDESDLSSESSIKKKFLKRKGKTDSPWIKPARKRRRRSRKKPSGALGSESYKSSAGSAEQTAPGDSTGYMEVSLDSLDLRVKGILSSQAEGLANGPDVLETDGLQEVPLCSCRMETPKSREITTLANNQCMATESVDHELGRCTNSVVKYELMRPSNKAPLLVLCEDHRGRMVKHQCCPGCGYFCTAGNFMECQPESSISHRFHKDCASRVNNASYCPHCGEESSKAKEVTIAKADTTSTVTPVPGQEKGSALEGRADTTTGSAAGPPLSEDDKLQGAASHVPEGFDPTGPAGLGRPTPGLSQGPGKETLESALIALDSEKPKKLRFHPKQLYFSARQGELQKVLLMLVDGIDPNFKMEHQNKRSPLHAAAEAGHVDICHMLVQAGANIDTCSEDQRTPLMEAAENNHLEAVKYLIKAGALVDPKDAEGSTCLHLAAKKGHYEVVQYLLSNGQMDVNCQDDGGWTPMIWATEYKHVDLVKLLLSKGSDINIRDNEENICLHWAAFSGCVDIAEILLAAKCDLHAVNIHGDSPLHIAARENRYDCVVLFLSRDSDVTLKNKEGETPLQCASLNSQVWSALQMSKALQDSAPDRPSPVERIVSRDIARGYERIPIPCVNAVDSEPCPSNYKYVSQNCVTSPMNIDRNITHLQYCVCIDDCSSSNCMCGQLSMRCWYDKDGRLLPEFNMAEPPLIFECNHACSCWRNCRNRVVQNGLRARLQLYRTRDMGWGVRSLQDIPPGTFVCEYVGELISDSEADVREEDSYLFDLDNKDGEVYCIDARFYGNVSRFINHHCEPNLVPVRVFMAHQDLRFPRIAFFSTRLIEAGEQLGFDYGERFWDIKGKLFSCRCGSPKCRHSSAALAQRQASAAQEAQEDGLPDTSSAAAADPL
B4 was tested, and the binding [7] was “no binding”.
